Measurements: PubChem BioAssay AID504834 (National Center for Advancing Translational Sciences (NCATS), 2011)
Hit rate of the full screen: of about 320,000 compounds, about 22,000 (6.9%) were called active. This list was built around the results that the source calls inconclusive (neither active nor inactive); the mix of calls is not that of the screen. Calls come from the whole dose curve; as a rule, active = well fitted inhibition curve with a large enough effect; inconclusive = small, poorly fitted or top-dose-only effect, or another doubt; inactive = no such curve, though single readings can be large or run the other way. Potencies of inconclusive entries are doubtful fits and often do not repeat.
Potency is the fitted concentration of half-maximal effect.

Assay: Primary qHTS for delayed death inhibitors of the malarial parasite plastid, 96 hour incubation
Details: P. falciparum luciferase reporter growth; series mostly up to 28.7 µM
Method in brief: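 P. falciparum expressing integrated firefly luciferase, in erythrocytes at 2% hematocrit, 0.05% parasitemia, incubated with compounds 96 h at 37 C, 5% CO2. Growth inhibition read as loss of luminescence; two-generation exposure targets delayed-death apicoplast inhibitors.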
For CCNC(=S)N1CCc2cc(OC)c(OC)cc2C1COc1ccc(F)cc1 (stereo not given), the Potency was active: 8.28 µM.
For COc1ccccc1NC(=O)Nc1ccc(C)cn1, the Potency was inconclusive: 18.5 µM [inhibitor, single point].
With Cc1cc(C)c(C(=O)OCc2csc(CC(=O)Nc3ccccc3C)n2)c(C)c1 the Potency was inconclusive: 18.5 µM [inhibitor, single point].
For O=C(Nc1ccc(Br)cc1)c1cc(Br)c(Br)s1, the Potency was inconclusive: 19 µM [inhibitor, single point].
In the case of COc1ccc(C)cc1-n1nnnc1SCC1CCCCO1 (stereo not given), the Potency is reported as inconclusive: 18.5 µM [inhibitor, single point].
With Cn1ncc2c(NCc3ccccc3)ncnc21 the Potency was “inactive”.
In the case of CCCC(=O)Nc1nc(C)c(-c2csc(Nc3ccc(Cl)cc3)n2)s1, the Potency is reported as inconclusive: 0.0738 µM [inhibitor, full curve, poor fit].
In the case of CS(=O)(=O)Nc1cccc(C2=NN(S(=O)(=O)c3ccc(F)cc3)C(c3cccs3)C2)c1 (stereo not given), the Potency is reported as inconclusive: 18.5 µM [inhibitor, single point].
For COc1ccc(-c2csc(CCn3nc(C)cc3C)n2)cc1OC, the Potency was “inactive”.
In the case of OC(Cn1cncn1)c1ccc(Cl)cc1Cl (stereo not given), the Potency is reported as “inactive”.
With CCC(C)C(NC(=O)OC(C)(C)C)C(=O)NCc1ccco1 (stereo not given) the Potency was inconclusive: 16.5 µM [inhibitor, partial curve, poor fit].
With CCCc1c(C)[nH]c2ccccc2c1=O the Potency was inconclusive: 18.5 µM [inhibitor, single point].
In the case of CN1CCN(NC(=O)COc2cccc(C(F)(F)F)c2)CC1, the Potency is reported as inconclusive: 4.15 µM [inhibitor, single point].
For Cc1ccc(CNC(=O)CN(C)S(=O)(=O)c2cccc3nsnc23)cc1, the Potency was “inactive”.
In the case of N#CC1(Cc2ccc([N+](=O)[O-])cc2)c2ccccc2C=CN1C(=O)c1ccccc1 (stereo not given), the Potency is reported as inconclusive: 0.928 µM [inhibitor, full curve, poor fit].
With Cc1cc(C(=O)Nc2ccccc2N2CCOCC2)c2ccccc2n1 the Potency was inconclusive: 18.5 µM [inhibitor, partial curve, poor fit].
With Cn1c(=O)[nH]c(=O)c2c1nc(N1CCOCC1)n2CCSc1nc2ccccc2[nH]1 the Potency was “inactive”.
With Cc1cccc(CN2C(=O)c3ccccc3S(=O)(=O)c3ccc(C(=O)NCCCN4CCCC4)cc32)c1 the Potency was inconclusive: 18.5 µM [inhibitor, partial curve, poor fit].
In the case of CN(CCc1ccccn1)C(=O)c1ccc(OC2CCN(CCc3ccccc3)CC2)cc1, the Potency is reported as inconclusive: 13.1 µM [inhibitor, single point].
With O=C(CNC(=O)c1ccccc1F)NCCN1C(=O)S/C(=C\c2ccccc2Cl)C1=O the Potency was “inactive”.
In the case of COC(=O)c1sccc1NC(=O)c1ccc(C)o1, the Potency is reported as inconclusive: 0.117 µM [inhibitor, full curve, poor fit].
In the case of CCCc1c(C(=O)Nc2ccc(OC)cc2)cnn1-c1ccccc1, the Potency is reported as inconclusive: 4.15 µM [inhibitor, single point].
In the case of CN1C(=O)C(CC(=O)NCCc2ccccc2)N(NC(=O)c2cccc(F)c2)C1=S (stereo not given), the Potency is reported as inconclusive: 9.28 µM [inhibitor, single point].
In the case of COc1ccc(NC(=O)N2CCN(c3ccc([N+](=O)[O-])cc3)CC2)cc1OC, the Potency is reported as inconclusive: 18.5 µM [inhibitor, single point].
In the case of COC(=O)[C@]1(C)CCC[C@@]2(C)C3CC[C@@]4(C)C[C@]3(CCC21)CC(=O)N4 (stereo not given in full), the Potency is reported as inconclusive: 16.5 µM [inhibitor, single point].
For CCOC(=O)N1CCC(NC(=O)C(NC(=O)C2CCC(C)CC2)C(C)CC)CC1 (stereo not given), the Potency was inconclusive: 2.08 µM [inhibitor, partial curve].
With Cc1ccc(CN2CCCN(Cc3ccc(C)cc3)S2(=O)=O)cc1 the Potency was inconclusive: 18.5 µM [inhibitor, single point].
With CCn1c2ccccc2c2cc(N=C3SC(CC(=O)Nc4ccccc4OC)C(=O)N3CCOC)ccc21 (stereo not given) the Potency was inconclusive: 18.5 µM [inhibitor, single point].
In the case of CCOC(=O)c1cc2c(C)n(-c3ccc(OCC)cc3)c(C)c2cc(C(=O)OCC)c1=O, the Potency is reported as inconclusive: 11.7 µM [inhibitor, single point].
For COc1ccc(C2(CNC(=O)/C=C\c3ccco3)CCCC2)cc1OC, the Potency was inconclusive: 11.7 µM [inhibitor, single point].
For O=C(c1cc(=O)[nH]c2ccccc12)N1CCN(Cc2ccc3c(c2)OCO3)CC1, the Potency was inconclusive: 14.7 µM [inhibitor, single point].
For CSc1ccc(N=Nc2c(C)[nH]n(C)c2=O)cc1, the Potency was inconclusive: 9.28 µM [inhibitor, single point].
For COc1ccccc1CNC(=O)C(NC(=O)c1ccccc1)C(C)C (stereo not given), the Potency was “inactive”.
In the case of COc1cccc(/C=C/C(=O)OCC(=O)Nc2ccc(Cl)c(S(=O)(=O)N(C)C)c2)c1, the Potency is reported as “inactive”.
With O=C(N/N=C/c1ccc(Cl)c([N+](=O)[O-])c1)c1cc(-c2ccccc2)nc2ccccc12 the Potency was inconclusive: 16.5 µM [inhibitor, single point].
In the case of CC(C)Oc1ccc(CC2CCC(=O)N(C)C2=O)cc1 (stereo not given), the Potency is reported as inconclusive: 0.0041 µM [inhibitor, full curve, poor fit].
In the case of Cc1nc(Nc2ccc(Cl)cc2Cl)sc1C(=O)Nc1ccccc1, the Potency is reported as active: 11.7 µM.
In the case of COc1ccc(CN2C(=O)NC(=O)/C(=C/c3ccc(OC)c(OC)c3OC)C2=O)cc1, the Potency is reported as inconclusive: 4.15 µM [inhibitor, partial curve, poor fit].
In the case of CCOC(=O)c1c(C)[nH]c(C)c1C(=O)COC(=O)c1nc2nccc(C)n2n1, the Potency is reported as “inactive”.
With N=c1n(CCN2CCCCC2)c2ccccc2n1CC(=O)c1ccc(Cl)c(Cl)c1 the Potency was active: 2.62 µM.
With Cc1ccccc1NC(=O)CNc1ccc(Cl)c(C(F)(F)F)c1 the Potency was inconclusive: 18.5 µM [inhibitor, single point].
With O=C(COC(=O)CNS(=O)(=O)c1ccc(F)c(F)c1F)NC1CCCC1 the Potency was “inactive”.
For COc1ccc(N2CCN(CC(=O)N3CCC(C)CC3)CC2)cc1, the Potency was “inactive”.
For O=C(O)C1C2C=CC(C2)C1C(=O)NCc1cccs1 (stereo not given), the Potency was active: 4.15 µM.
For CC(=O)c1coc2ccc(OCC(=O)O)cc12, the Potency was “inactive”.
For COc1ccccc1N1CCN(C(=O)c2ccc(CN3CCc4ccccc4C3)cc2)CC1, the Potency was inconclusive: 18.5 µM [inhibitor, single point].
In the case of COc1ccc(-n2c(O)c(/C=N/NS(=O)(=O)c3ccc(C)c([N+](=O)[O-])c3)c3ccccc3c2=O)cc1OC, the Potency is reported as active: 11.7 µM.
With CCOC(=O)C(=O)Nc1nc(-c2ccccc2)c(-c2ccccc2)o1 the Potency was “inactive”.
For CCOC(=O)c1cnc(SCC(=O)N2CCOCC2)nc1N, the Potency was inconclusive: 13.1 µM [inhibitor, single point].
For Cn1cc(CNC(=O)C2CCC(=O)N(Cc3ccccc3F)C2)cn1 (stereo not given), the Potency was inconclusive: 10.4 µM [inhibitor, single point].
With CCOc1cccc(-c2c(C(=O)N/N=C/c3ccc(Br)cc3)nnn2-c2nonc2N)c1 the Potency was active: 2.62 µM.
In the case of COC(=O)c1c(NC(=O)COC(=O)c2ccc(NC(=O)CC#N)cc2)sc2c1CCCCC2, the Potency is reported as “inactive”.
With COC(CNC(=O)c1cc(C(=O)c2c(-c3c(Cl)cccc3Cl)noc2C)c[nH]1)OC the Potency was inconclusive: 18.5 µM [inhibitor, single point].
For C=CCn1c(SCC(=O)Nc2nnc(C)s2)nnc1-c1cccnc1, the Potency was inconclusive: 18.5 µM [inhibitor, single point].
In the case of COc1ccc(C2CC(c3ccccc3)=NN2C(=O)COC(=O)COc2ccccc2)cc1 (stereo not given), the Potency is reported as “inactive”.
In the case of CC1c2nc3ccccc3n2C(CC(=O)NCCCN2CCOCC2)C(=O)N1Cc1ccccc1 (stereo not given), the Potency is reported as inconclusive: 11.7 µM [inhibitor, single point].
For COC(=O)c1ccc(Oc2c(Cl)cccc2[N+](=O)[O-])cc1, the Potency was “inactive”.
For O=C(CSc1nnc(-c2cccs2)n1Cc1ccccc1)N1CCc2ccccc2C1, the Potency was active: 10.4 µM.
In the case of CCCCSCc1[nH]c(=O)[nH]c1C(=O)CCCCC(=O)OCC, the Potency is reported as “inactive”.
With COc1cc(Cl)cc(/C=C/c2ccc3ccccc3n2)c1OC(C)=O the Potency was inconclusive: 10.4 µM [inhibitor, partial curve, poor fit].
With C/C(=N\O)C(=O)NCCCNCCCN(C)C the Potency was inconclusive: 7.38 µM [inhibitor, single point].
For CC(C)(C)n1ncc2c(=O)n(Cc3ccc(Cl)cc3)cnc21, the Potency was inconclusive: 18.5 µM [inhibitor, single point].
With CCCCSc1nc(C)nc2c1c(=O)n(C)c(=O)n2C the Potency was inconclusive: 10.4 µM [inhibitor, single point].
For COc1ccc(-n2c(N)c(C(=O)NCc3ccco3)c3nc4ccccc4nc32)cc1OC, the Potency was inconclusive: 13.1 µM [inhibitor, single point].
In the case of CCOc1ccc(NC(=S)N(CCOC)C2CCN(C(C)C)CC2)cc1, the Potency is reported as inconclusive: 14.7 µM [inhibitor, single point].
For CC(=O)NCc1c(I)c(NC(C)=O)c(I)c(C(=O)O)c1I, the Potency was “inactive”.
In the case of O=C(NCC1CCCO1)c1ccc(Cl)c(S(=O)(=O)N2CCCCC2)c1 (stereo not given), the Potency is reported as “inactive”.
With CSc1ncc(Cl)c(C(=O)Nc2ccccc2C)n1 the Potency was inconclusive: 2.33 µM [inhibitor, partial curve, poor fit].
In the case of CC(NC(=O)CN1C(=O)NC(Cc2ccccc2)(Cc2ccccc2)C1=O)C12CC3CC(CC(C3)C1)C2 (stereo not given), the Potency is reported as active: 11.7 µM.
In the case of COc1ccc(C2CC(c3c(-c4ccccc4)c4cc(Cl)ccc4[nH]c3=O)=NN2S(C)(=O)=O)cc1OC (stereo not given), the Potency is reported as inconclusive: 8.28 µM [inhibitor, partial curve, poor fit].
